# From PubChem BioAssay (EPA / NIEHS)
# The chains behind the UniProt entries cited, without tags or fusion partners. Where a name states a change or a piece, a line headed by the entry shows the natural chain unless it says otherwise.
# UniProt P30536, whole entry, looked up: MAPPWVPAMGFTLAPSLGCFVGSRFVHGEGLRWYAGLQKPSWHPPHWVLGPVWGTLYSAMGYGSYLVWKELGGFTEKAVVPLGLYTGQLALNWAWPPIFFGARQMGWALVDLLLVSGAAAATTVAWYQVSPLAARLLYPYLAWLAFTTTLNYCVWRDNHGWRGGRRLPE
# UniProt O75469: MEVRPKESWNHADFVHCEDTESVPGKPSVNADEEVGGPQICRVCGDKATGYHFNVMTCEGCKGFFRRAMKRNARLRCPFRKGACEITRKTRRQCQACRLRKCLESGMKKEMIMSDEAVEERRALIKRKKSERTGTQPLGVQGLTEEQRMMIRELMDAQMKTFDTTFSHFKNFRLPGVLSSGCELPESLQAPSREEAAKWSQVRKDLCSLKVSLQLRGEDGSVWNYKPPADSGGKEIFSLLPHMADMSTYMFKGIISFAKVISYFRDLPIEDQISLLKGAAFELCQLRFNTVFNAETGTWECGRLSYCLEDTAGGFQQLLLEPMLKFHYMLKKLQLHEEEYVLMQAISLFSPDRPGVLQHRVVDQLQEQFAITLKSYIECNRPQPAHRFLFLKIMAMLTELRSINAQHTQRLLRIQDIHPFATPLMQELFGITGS
# UniProt Q60492, whole entry, looked up: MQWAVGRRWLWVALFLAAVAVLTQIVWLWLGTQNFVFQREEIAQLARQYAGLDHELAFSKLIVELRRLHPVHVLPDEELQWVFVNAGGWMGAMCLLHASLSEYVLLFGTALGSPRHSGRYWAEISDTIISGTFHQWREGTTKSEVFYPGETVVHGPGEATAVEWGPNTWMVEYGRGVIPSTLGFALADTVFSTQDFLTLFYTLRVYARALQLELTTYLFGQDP
# UniProt P37231: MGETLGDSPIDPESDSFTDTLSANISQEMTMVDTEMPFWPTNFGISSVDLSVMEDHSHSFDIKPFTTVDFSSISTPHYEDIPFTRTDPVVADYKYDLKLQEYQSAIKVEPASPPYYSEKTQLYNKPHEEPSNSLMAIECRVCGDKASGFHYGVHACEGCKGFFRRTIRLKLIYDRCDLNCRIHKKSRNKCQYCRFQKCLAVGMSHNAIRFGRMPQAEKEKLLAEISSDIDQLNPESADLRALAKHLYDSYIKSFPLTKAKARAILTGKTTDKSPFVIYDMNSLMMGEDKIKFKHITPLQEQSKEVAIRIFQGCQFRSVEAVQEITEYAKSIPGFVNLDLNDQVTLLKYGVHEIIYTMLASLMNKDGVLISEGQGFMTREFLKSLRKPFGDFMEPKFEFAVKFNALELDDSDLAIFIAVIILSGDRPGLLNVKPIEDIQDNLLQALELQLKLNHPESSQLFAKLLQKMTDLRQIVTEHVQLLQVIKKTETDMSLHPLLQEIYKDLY
# UniProt P10827: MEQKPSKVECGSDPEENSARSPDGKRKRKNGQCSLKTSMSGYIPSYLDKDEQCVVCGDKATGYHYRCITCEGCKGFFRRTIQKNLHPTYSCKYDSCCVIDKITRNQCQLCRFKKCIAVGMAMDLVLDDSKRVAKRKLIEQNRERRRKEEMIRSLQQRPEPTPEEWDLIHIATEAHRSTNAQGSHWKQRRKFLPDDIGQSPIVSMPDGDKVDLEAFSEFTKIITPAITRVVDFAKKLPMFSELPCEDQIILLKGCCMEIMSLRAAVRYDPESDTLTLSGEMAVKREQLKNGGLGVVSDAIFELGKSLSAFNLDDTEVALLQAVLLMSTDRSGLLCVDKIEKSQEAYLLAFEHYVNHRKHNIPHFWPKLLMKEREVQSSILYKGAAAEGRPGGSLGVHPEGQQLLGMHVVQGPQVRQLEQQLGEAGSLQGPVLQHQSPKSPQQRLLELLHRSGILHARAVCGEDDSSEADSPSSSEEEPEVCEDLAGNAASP
# UniProt Q92731, whole entry, looked up: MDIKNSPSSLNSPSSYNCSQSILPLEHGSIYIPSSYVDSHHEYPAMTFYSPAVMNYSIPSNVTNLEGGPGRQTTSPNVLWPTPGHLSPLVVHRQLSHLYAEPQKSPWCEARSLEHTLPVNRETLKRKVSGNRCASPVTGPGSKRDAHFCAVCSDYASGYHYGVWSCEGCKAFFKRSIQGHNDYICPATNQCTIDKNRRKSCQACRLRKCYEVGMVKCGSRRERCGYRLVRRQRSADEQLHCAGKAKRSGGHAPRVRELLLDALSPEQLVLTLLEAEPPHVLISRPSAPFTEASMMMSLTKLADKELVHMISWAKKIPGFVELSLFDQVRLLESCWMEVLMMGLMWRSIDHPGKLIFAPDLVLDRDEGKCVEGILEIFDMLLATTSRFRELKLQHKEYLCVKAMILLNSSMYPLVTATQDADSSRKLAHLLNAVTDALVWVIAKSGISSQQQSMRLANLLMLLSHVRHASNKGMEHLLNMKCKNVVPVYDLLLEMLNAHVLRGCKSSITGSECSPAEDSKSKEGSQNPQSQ
# UniProt Q14994: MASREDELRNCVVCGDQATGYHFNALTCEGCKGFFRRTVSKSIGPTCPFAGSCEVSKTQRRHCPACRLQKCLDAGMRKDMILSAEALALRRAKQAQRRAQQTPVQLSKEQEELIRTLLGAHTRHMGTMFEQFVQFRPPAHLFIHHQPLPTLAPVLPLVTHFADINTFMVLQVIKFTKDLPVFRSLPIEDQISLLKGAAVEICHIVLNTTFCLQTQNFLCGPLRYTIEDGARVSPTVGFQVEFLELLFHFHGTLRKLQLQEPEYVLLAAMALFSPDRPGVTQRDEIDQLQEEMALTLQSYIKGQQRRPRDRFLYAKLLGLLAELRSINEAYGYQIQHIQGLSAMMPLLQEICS
# UniProt Q01717: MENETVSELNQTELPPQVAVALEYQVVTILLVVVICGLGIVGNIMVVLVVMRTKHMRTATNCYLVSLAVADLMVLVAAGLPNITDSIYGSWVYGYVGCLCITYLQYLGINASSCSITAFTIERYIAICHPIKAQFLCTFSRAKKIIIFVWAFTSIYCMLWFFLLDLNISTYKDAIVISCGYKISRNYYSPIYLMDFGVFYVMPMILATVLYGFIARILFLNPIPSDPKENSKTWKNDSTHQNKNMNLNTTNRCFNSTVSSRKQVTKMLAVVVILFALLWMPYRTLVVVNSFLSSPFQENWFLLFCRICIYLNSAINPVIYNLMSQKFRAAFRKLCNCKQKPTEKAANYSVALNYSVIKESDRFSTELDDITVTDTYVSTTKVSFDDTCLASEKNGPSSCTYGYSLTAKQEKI
# UniProt P49884, whole entry, looked up: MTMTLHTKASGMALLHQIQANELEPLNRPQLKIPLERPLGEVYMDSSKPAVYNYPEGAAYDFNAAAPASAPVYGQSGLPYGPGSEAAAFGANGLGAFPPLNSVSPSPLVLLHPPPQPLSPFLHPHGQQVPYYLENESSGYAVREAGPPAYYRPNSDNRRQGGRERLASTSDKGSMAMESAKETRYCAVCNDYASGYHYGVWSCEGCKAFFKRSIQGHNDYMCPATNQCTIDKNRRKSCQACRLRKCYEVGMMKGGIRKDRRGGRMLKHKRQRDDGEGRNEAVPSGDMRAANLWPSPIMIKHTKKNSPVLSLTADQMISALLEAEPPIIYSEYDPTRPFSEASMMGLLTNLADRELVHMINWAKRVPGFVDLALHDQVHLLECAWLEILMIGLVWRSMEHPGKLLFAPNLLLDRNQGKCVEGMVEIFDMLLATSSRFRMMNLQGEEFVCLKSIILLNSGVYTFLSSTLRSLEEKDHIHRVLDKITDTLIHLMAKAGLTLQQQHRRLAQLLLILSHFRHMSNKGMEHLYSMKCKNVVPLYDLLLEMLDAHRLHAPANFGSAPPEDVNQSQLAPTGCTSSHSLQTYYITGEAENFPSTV
# UniProt Q07869: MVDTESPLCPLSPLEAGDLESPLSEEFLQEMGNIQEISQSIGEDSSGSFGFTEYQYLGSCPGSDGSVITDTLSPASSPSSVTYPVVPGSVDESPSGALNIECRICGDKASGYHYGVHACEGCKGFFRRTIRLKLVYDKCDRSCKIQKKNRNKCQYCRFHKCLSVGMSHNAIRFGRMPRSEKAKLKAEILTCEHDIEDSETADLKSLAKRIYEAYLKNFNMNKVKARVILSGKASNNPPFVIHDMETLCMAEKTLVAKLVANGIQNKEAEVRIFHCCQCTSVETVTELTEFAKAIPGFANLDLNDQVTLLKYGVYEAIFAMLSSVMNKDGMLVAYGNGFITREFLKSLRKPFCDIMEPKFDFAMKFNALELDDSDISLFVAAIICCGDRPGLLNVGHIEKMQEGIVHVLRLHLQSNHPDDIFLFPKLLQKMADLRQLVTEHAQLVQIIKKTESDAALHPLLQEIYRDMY
# UniProt P03372, whole entry, looked up: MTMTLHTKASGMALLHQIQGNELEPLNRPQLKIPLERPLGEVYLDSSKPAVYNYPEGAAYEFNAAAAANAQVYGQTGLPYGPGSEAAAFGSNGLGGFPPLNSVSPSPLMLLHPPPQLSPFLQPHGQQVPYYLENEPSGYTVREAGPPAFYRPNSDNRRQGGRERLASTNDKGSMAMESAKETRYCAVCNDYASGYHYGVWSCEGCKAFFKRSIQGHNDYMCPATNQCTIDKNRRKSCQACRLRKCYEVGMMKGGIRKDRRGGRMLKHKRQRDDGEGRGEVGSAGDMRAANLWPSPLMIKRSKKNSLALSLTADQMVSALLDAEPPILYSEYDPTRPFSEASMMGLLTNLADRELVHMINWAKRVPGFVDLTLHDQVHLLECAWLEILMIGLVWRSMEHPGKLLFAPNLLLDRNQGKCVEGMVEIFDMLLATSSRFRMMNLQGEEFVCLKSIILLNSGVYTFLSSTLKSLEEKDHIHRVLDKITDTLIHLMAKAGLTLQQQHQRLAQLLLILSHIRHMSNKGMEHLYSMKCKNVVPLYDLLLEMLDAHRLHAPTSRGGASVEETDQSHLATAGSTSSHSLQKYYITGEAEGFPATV
# UniProt P10275: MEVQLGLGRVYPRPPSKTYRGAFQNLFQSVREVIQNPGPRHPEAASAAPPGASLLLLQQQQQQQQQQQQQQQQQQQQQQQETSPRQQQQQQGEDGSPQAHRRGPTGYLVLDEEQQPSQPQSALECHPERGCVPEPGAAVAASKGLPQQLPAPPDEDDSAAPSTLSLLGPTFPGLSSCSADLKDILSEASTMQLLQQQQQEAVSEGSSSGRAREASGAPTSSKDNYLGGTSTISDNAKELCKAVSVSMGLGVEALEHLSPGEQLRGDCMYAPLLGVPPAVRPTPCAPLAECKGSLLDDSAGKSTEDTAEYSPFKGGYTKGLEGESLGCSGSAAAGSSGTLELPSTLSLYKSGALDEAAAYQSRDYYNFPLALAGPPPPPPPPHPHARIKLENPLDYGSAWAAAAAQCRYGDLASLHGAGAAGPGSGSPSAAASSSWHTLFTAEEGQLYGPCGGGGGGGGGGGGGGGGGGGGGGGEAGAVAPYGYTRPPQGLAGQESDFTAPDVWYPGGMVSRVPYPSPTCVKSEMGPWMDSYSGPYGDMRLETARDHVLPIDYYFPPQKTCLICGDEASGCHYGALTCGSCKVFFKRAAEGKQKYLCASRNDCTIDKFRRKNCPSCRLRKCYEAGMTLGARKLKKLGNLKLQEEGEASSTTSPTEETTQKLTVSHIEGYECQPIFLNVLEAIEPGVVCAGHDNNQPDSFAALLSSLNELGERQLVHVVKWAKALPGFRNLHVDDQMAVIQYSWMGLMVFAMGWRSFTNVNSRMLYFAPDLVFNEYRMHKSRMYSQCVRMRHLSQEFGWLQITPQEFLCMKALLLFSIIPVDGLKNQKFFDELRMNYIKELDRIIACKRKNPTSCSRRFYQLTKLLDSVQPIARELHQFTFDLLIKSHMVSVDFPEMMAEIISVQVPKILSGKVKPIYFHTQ
# For part of these data: This list holds what a sample rich in hits left over. Inconclusive results are not listed. Only a part is listed here, and it is no random draw. Active and inactive are the calls of the source. How the source made its calls, unless noted: active means hit-call score of the fitted dose curve at least 0.9, where 1 is the maximum; inconclusive means response in the unintended direction; inactive means score below 0.9.
# What was measured:
# [1] = molecular target: human Peripheral-type Benzodiazepine Receptor (PBR), TSPO (gene 706) (UniProt P30536); test: NVS_MP_hPBR: NovaScreen (NVS) Membrane Protein Assay for human Peripheral-type Benzodiazepine Receptor (PBR) (AID 2283331);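 further: hits reduce radioligand binding relative to DMSO baseline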
# In short: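 Radioligand displacement on human colonic cell membranes, 1 h incubation; bound radioactivity by filtration and scintillation counting. Primary screen in duplicate at 25 uM single concentration, actives followed up in concentration series; loss of binding versus DMSO.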
# [2] = CEETOX_H295R_OHPROG_noMTC: CeeTox H295R High-throughput Steroidogenesis Assay for OH-Progesterone (OHPROG), maximum tolerated concentration (MTC) filtered results only (AID 2283914; active means hit-call score of the fitted dose curve at least 0.9, where 1 is the maximum; inactive means score below 0.9); conditions: actives raise or lower the signal
# In short: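 H295R cells prestimulated 48 h with 10 uM forskolin, then exposed 48 h to chemical (0.1% DMSO final). 17alpha-hydroxyprogesterone in medium quantified by HPLC-MS/MS after MTBE extraction; bidirectional fitting versus DMSO, concentrations not MTC-filtered.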
# [3] = CEETOX_H295R_ESTRADIOL_noMTC: CeeTox H295R High-throughput Steroidogenesis Assay for Estradiol, maximum tolerated concentration (MTC) filtered results only (AID 2283919; active means hit-call score of the fitted dose curve at least 0.9, where 1 is the maximum; inactive means score below 0.9); conditions: actives raise or lower the signal
# In short: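 H295R human adrenal cells pre-stimulated 48 h with 10 uM forskolin, then exposed 48 h to chemical (0.1% DMSO final). Estradiol in medium measured by HPLC-MS/MS after MTBE extraction and dansyl derivatization; bidirectional fit versus DMSO, concentrations not MTT-filtered.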
# [4] = read-out: Interleukin 2 (IL2), IL2 (gene 3558); test: BSK_BT_xIL2: BioMAP Diversity Plus: BT Assay for Interleukin 2 (IL2) Biomarker Activity (AID 2284245; active means hit-call score of the fitted dose curve at least 0.9, where 1 is the maximum; inactive means score below 0.9); conditions: primary human B cells with PBMC
# In short: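 Secreted interleukin-2 from human B cell/PBMC co-cultures, measured 24 h post-dosing by Luminex multiplex immunoassay. Upward-direction curve fitting against DMSO baseline.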
# [5] = molecular target: Nuclear receptor subfamily 1 group I member 2 (Homo sapiens) (UniProt O75469); test: NVS_NR_hPXR: NovaScreen (NVS) Nuclear Receptor Binding Assay for human Pregnane X Receptor (PXR) (AID 2283365);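 further: a drop in FRET signal versus DMSO baseline means the compound binds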
# In short: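 Read-out: TR-FRET, human PXR, 2 h post-dosing, cell-free. Loss of signal vs DMSO taken as binding activity; 25 uM primary, concentration series secondary.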
# [6] = molecular target: guinea pig Sigma Receptor, Non-selective Binding, SIGMAR1 (gene 100135589) (UniProt Q60492); test: NVS_OR_gSIGMA_NonSelective: NovaScreen (NVS) Nuclear Receptor Binding Assay for guinea pig Sigma Receptor, Non-selective Binding (AID 2283367)
# [7] = molecular target: Peroxisome proliferator-activated receptor gamma (Homo sapiens) (UniProt P37231); test: NVS_NR_hPPARg: NovaScreen (NVS) Nuclear Receptor Binding Assay for human Peroxisome Proliferator-activated Receptor gamma (PPARg) (AID 2283370)
# In short: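 Extracted receptor protein, cell-free; compound incubated 2 h then fluorescence polarization read. Baseline: DMSO. Actives from 25 uM duplicate screen re-run across concentrations.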
# HGF (gene 3082) = test: LTEA_HepaRG_HGF: Life Technologies and Expression Analysis (LTEA) Assay for Hepatocyte Growth Facto (HGF) using HepaRG (AID 2283505; active means hit-call score of the fitted dose curve at least 0.9, where 1 is the maximum; inactive means score below 0.9); conditions: actives raise or lower the signal; mRNA level, 48 h
# In short: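 Using HepaRG monolayers kept in 0.5% DMSO, chemicals were tested in duplicate over eight half-log concentrations from 100 uM for 48 h. Endpoint: HGF mRNA change relative to DMSO, normalized to ACTB/GAPDH/POLR2A.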
# [8] = read-out: Interleukin 6 Receptor (IL6R), IL6R (gene 3570); test: LTEA_HepaRG_IL6R: Life Technologies and Expression Analysis (LTEA) Assay for Interleukin 6 Receptor (IL6R) using HepaRG (AID 2283510; active means hit-call score of the fitted dose curve at least 0.9, where 1 is the maximum; inactive means score below 0.9); conditions: actives raise or lower the signal; mRNA level, 48 h
# In short: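 Concentration-response in human liver HepaRG cells: eight concentrations from 100 uM downward by half-logs, 48 h exposure, 0.5% DMSO vehicle. IL6R mRNA change measured by qRT-PCR and fitted in both directions relative to vehicle.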
# [9] = molecular target: human Thyroid Receptor Alpha (TRa), THRA (gene 7067) (UniProt P10827); test: NVS_NR_hTRa_Antagonist: NovaScreen (NVS) Nuclear Receptor Binding Assay for human Thyroid Receptor Alpha Antagonism (TRa) (AID 2283362);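 further: activity is loss of signal relative to DMSO baseline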
# In short: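 In this biochemical format, receptor protein is dosed with chemical and read after 1 hour via AlphaLISA. Decreases from the DMSO baseline indicate antagonist activity; screening used 25 uM in duplicate before concentration-response confirmation.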
# [10] = molecular target: Estrogen receptor beta (Homo sapiens) (UniProt Q92731); test: OT_ER_ERbERb_1440: Odyssey Thera (OT) 24-hour HEK293T Protein-Complementation Assay for Estrogen Receptor-beta/-beta Homodimer (AID 2283380);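 further: scored as signal increase over DMSO baseline for both agonists and antagonists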
# In short: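 HEK293T cells stably expressing ER beta LBD (aa 310-547) homodimer fragment-complementation reporter, dosed 24 h. Cells formaldehyde-fixed, Draq5-stained; gain in nuclear (agonist) or nuclear plus cytoplasmic (antagonist) fluorescence versus DMSO read by laser scanning cytometry.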
# [11] = tested on: Sodium/Iodide Symporter (NIS), SLC5A5 (gene 6528); test: CPHEA_Stoker_NIS_Inhibition_RAIU: CPHEA's Radioactive Iodide Uptake (RAIU) Assay for Sodium/Iodide Symporter (NIS) Inhibition, Stoker and Laws Labs (AID 2283841)
# In short: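 Test chemicals, six concentrations from 0.001 to 100uM in 0.5% DMSO, were co-incubated with carrier-free 125I (final 329pM) on hNIS-HEK293T-EPA monolayers in pH 7.4 HEPES-buffered HBSS. Plates stood 2 hours at room temperature, then were washed cold and counted.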
# [12] = molecular target: human Constitutive Androstane Receptor (CAR), NR1I3 (gene 9970) (UniProt Q14994); test: NVS_NR_hCAR_Antagonist: NovaScreen (NVS) Nuclear Receptor Binding Assay for human Constitutive Androstane Receptor Antagonism (CAR) (AID 2283344)
# In short: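 Cell-free TR-FRET binding read 1 h after dosing, antagonist mode; loss of signal versus DMSO baseline. Primary screen in duplicate at a single 25 uM; actives retested in concentration series.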
# [13] = read-out: ATP-citrate lyase (ACLY), ACLY (gene 47); test: LTEA_HepaRG_ACLY: Life Technologies and Expression Analysis (LTEA) Assay for ATP-citrate lyase (ACLY) using HepaRG (AID 2283466; active means hit-call score of the fitted dose curve at least 0.9, where 1 is the maximum; inactive means score below 0.9); conditions: actives raise or lower the signal; mRNA level, 48 h
# In short: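 Differentiated HepaRG cells exposed 48 h in serum-free induction medium to eight half-log concentrations up to 100 uM in 0.5% DMSO, duplicates. Transcript measured by Fluidigm TaqMan qRT-PCR, normalized to ACTB, GAPDH, POLR2A; bidirectional fit versus DMSO.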
# [14] = read-out: Pyruvate Dehydrogenase Kinase 4 (PDK4), PDK4 (gene 5166); test: LTEA_HepaRG_PDK4: Life Technologies and Expression Analysis (LTEA) Assay for Pyruvate Dehydrogenase Kinase 4 (PDK4) using HepaRG (AID 2283525; active means hit-call score of the fitted dose curve at least 0.9, where 1 is the maximum; inactive means score below 0.9); conditions: actives raise or lower the signal; mRNA level, 48 h
# In short: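 HepaRG cells plated 48 h, then switched to serum-free induction medium and exposed in duplicate for 48 h to 8 half-log concentrations from 100 uM in 0.5% DMSO. PDK4 mRNA measured by qRT-PCR, normalized to ACTB, GAPDH and POLR2A; bidirectional fit versus DMSO.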
# [15] = read-out: solute carrier (SLCO1B1), SLCO1B1 (gene 10599); test: LTEA_HepaRG_SLCO1B1: Life Technologies and Expression Analysis (LTEA) Assay for solute carrier (SLCO1B1) using HepaRG (AID 2283530; active means hit-call score of the fitted dose curve at least 0.9, where 1 is the maximum; inactive means score below 0.9); conditions: actives raise or lower the signal; mRNA level, 48 h
# In short: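 Human HepaRG cultures treated for 48 h with an eight-concentration half-log series topping at 100 uM; SLCO1B1 measured by qRT-PCR and fitted bidirectionally relative to DMSO.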
# [16] = ACEA_AR_antagonist_AUC_viability: ACEA Biosciences xCELLigence Real-Time Cell Analysis on Androgen Receptor Antagonism for Viability (AID 2283776);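 further: 22Rv1 human prostate cancer cells growing on impedance electrode plates; area under impedance growth curve at 80 h after dosing as viability; hits lower the growth signal relative to DMSO meaning cytotoxicity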
# In short: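 Viability endpoint from label-free cell-index monitoring: 22Rv1 cultures treated with an eight-point 1:4 dilution series starting at 100 uM final, AUC at 80 h fitted against DMSO.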
# [17] = molecular target: Peroxisome proliferator-activated receptor gamma (Homo sapiens) (UniProt P37231); test: OT_PPARg_PPARgSRC1_0480: Odyssey Thera (OT) 8-hour Protein-Complementation Assay for Peroxisome Proliferator-activated Receptor Gamma / SRC-1 Co-activator (AID 2283387);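 further: nuclear to cytoplasmic split Venus YFP fluorescence ratio reporting PPARg SRC-1 interaction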
# In short: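 Split-YFP (IFP1/IFP2) PPARg/SRC-1 reporter, HEK293T, 37 °C, 5% CO2; 8 h compound; formaldehyde fix + Draq5; high-content imaging, N/C ratio, ≥350 cells/image, positive direction vs DMSO.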
# [18] = molecular target: Peroxisome proliferator-activated receptor gamma (Homo sapiens) (UniProt P37231); test: OT_PPARg_PPARgSRC1_1440: Odyssey Thera (OT) 24-hour Protein-Complementation Assay for Peroxisome Proliferator-activated Receptor Gamma/ SRC-1 Co-activator (AID 2283388);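 further: nuclear to cytoplasmic ratio of reconstituted Venus YFP fluorescence in fixed imaged cells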
# In short: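 Cells carrying the PPARg/SRC-1 fragment-complementation reporter receive compound for 24 hours, are fixed and counterstained with Draq5, then imaged. Increased nuclear relative to cytoplasmic YFP fluorescence above DMSO baseline indicates binding activity.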
# [19] = molecular target: rat Thyrotropin Releasing Hormone Receptor (TRH), Trhr (gene 25570) (UniProt Q01717); test: NVS_GPCR_rTRH: NovaScreen (NVS) G Protein-Coupled Receptor Assay for rat Thyrotropin Releasing Hormone Receptor (TRH) (AID 2283329);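 further: hit means lower bound tracer signal versus DMSO baseline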
# In short: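 Test compounds are screened at 25 uM in duplicate against radioligand binding in rat forebrain membranes, with active pairs followed up over a concentration range. Detection uses filter-based radiodetection after a 4 h exposure.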
# [20] = molecular target: bovine Estrogen Receptor (ER), ESR1 (gene 407238) (UniProt P49884); test: NVS_NR_bER: NovaScreen (NVS) Nuclear Receptor Binding Assay for bovine Estrogen Receptor (ER) (AID 2283345);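 further: actives lower the bound radioligand count which means they displace the ER ligand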
# In short: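 Bovine uterine membranes; tritiated or iodinated radioligand; competitive displacement; 18 h; scintillation read; DMSO negative control; 25 uM duplicates, then concentration series for actives.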
# [21] = molecular target: human Peroxisome Proliferator-activated Receptor alpha (PPARa), PPARA (gene 5465) (UniProt Q07869); test: NVS_NR_hPPARa: NovaScreen (NVS) Nuclear Receptor Binding Assay for human Peroxisome Proliferator-activated Receptor alpha (PPARa) (AID 2283359);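 further: activity means loss of TR-FRET signal versus DMSO baseline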
# In short: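 Cell-free TR-FRET binding assay with extracted PPARα protein, read 1 h after dosing. Primary screen in duplicate at 25 uM, with actives retested in concentration series. Loss of signal versus DMSO.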
# [22] = ACEA_AR_agonist_AUC_viability: ACEA Biosciences xCELLigence Real-Time Cell Analysis on Androgen Receptor Agonism for Viability (AID 2283775)
# In short: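 Read-out is area under the impedance curve at 80 h post-dose in 22Rv1 cells, with DMSO as baseline and signal loss taken as reduced viability. Compounds ran in duplicate from 100 uM final.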
# [23] = molecular target: Estrogen receptor (Homo sapiens) (UniProt P03372); test: OT_ER_ERaERa_1440: Odyssey Thera (OT) 24-hour HEK293T Protein-Complementation Assay for Estrogen Receptor-alpha/-alpha Homodimer (AID 2283349);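 further: hits raise fluorescence above DMSO for agonists and antagonists alike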
# In short: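 HEK293T cells stably expressing the human ER alpha ligand-binding domain (aa 310-547) as a homodimer PCA were dosed for 24 hours. Fluorescence intensity was read by laser scanning cytometry, and gain of signal was fitted relative to DMSO vehicle.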
# [24] = TOX21_p53_BLA_p2_viability: Viability Assessment in the Tox21 HCT-116 p53 Agonism Beta-lactamase Assay, Phase 2 (AID 2283591);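 further: compound exposure lasted 16 h at 37 °C; actives lower the ATP signal meaning cytotoxicity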
# In short: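 HCT116 p53-bla cells, 4000/well, dosed after 5 h plating (217-fold dilution of DMSO stocks) and incubated 16 h at 37C. Viability taken as cellular ATP by CellTiter-Glo luminescence after 30 min RT; signal loss marks cytotoxicity.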
# [25] = CCTE_Harrill_HTTr_Apoptosis_MCF7: CCTE's 6-hour Apoptosis Assessment for the High-Throughput Transcriptomics (HTTr) Platform, in MCF-7 cells cultured in DMEM + 10% fetal bovine serum, Harrill Lab (AID 2284011; active means hit-call score of the fitted dose curve at least 0.9, where 1 is the maximum; inactive means score below 0.9)
# In short: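 Apoptosis in MCF-7 cells grown in DMEM with 10% fetal bovine serum was scored after a six hour exposure by high content imaging of caspase-3/7 activation (CellEvent Caspase 3/7 Green), with DMSO serving as negative control and baseline.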
# [26] = molecular target: Agonist Androgen Response Element (ARE), AR (gene 367) (UniProt P10275); test: OT_AR_ARELUC_AG_1440: Odyssey Thera (OT) 24-hour CHO-K1 Luciferase Assay for Agonist Androgen Response Element (ARE) (AID 2283379)
# In short: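 CHO-K1 cells carrying an ARE-driven luciferase reporter were exposed to compounds for 24 h. Luminescence was then read after adding a D-luciferin/ATP mix, and activity was scored as a gain in signal over DMSO vehicle.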
compound,measurement,setting,value
CCCCC1C(=O)N(c2ccccc2)N(c2ccccc2)C1=O,AC50,[1],active: 15.7 µM
same,AC50,[2],active: 27.5 µM
same,outcome,[3],inactive
same,outcome,[4],inactive
CC1(C)CC(N=C=O)CC(C)(CN=C=O)C1 (stereo not given),AC50,[5],active: 25 µM
Fc1ccccc1[C@@H](F)COC1CCC(Nc2ncnc3[nH]ncc23)CC1 (stereo not given in full),AC50,[6],active: 1.21 µM
same,AC50,[7],active: 12.9 µM
same,outcome,HGF (gene 3082),inactive
same,outcome,[8],inactive
CCc1ccc(O)cc1,outcome,[9],inactive
CCCCCCCCCOS(=O)(=O)O,outcome,[10],inactive
same,outcome,[11],inactive
O=C1O[C@H]([C@H](O)CO)C(O)=C1O,outcome,[12],inactive
same,outcome,[13],inactive
same,outcome,[14],inactive
same,outcome,[15],inactive
same,outcome,[16],inactive
CC(C)(C)C1CCC(O)CC1 (stereo not given),outcome,[10],inactive
same,outcome,[17],inactive
same,outcome,[18],inactive
same,outcome,[16],inactive
CCCCC/C=C\C=C\C(=O)OCC,outcome,[19],inactive
same,outcome,[20],inactive
same,outcome,[21],inactive
same,outcome,[22],inactive
CCCCCCCCCCCCc1ccc(O)cc1,AC50,[23],active: 11.9 µM
same,AC50,[24],active: 38.6 µM
CNC(=C[N+](=O)[O-])NCCSCc1ccc(CN(C)C)o1,outcome,[19],inactive
same,outcome,[25],inactive
Cc1ccc(S(=O)(=O)Oc2ccc(N=Nc3ccc(-c4ccc(N=Nc5c(O)ccc6cc(S(=O)(=O)O)cc(S(=O)(=O)O)c56)c(C)c4)cc3C)cc2)cc1,outcome,[26],inactive
